US20070249022A1
These are yes or no findings as the source states them, for the method shown. Some results given as binding are weak or reduced against the parent protein; the word gives no strength.

Amino acid sequences for entries named in this document (tags omitted). A change or cut given only in a name is not applied to a line headed by its entry.
UniProt P27037: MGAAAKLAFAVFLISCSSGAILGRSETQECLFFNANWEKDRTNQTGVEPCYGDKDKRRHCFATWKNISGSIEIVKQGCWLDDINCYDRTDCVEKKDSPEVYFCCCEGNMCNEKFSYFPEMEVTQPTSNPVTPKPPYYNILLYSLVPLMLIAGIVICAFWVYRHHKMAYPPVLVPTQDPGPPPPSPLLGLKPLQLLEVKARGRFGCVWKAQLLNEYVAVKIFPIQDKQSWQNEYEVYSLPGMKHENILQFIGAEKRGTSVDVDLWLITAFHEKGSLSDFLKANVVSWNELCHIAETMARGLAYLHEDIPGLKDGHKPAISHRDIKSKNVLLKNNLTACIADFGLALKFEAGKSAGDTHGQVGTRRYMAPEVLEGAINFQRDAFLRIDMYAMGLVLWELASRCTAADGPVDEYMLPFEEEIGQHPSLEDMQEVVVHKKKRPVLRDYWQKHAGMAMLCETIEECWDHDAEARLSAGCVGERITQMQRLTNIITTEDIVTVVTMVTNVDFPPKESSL

Target: T1, GDF-11 (UniProt O95390)
T1 sequence (looked up): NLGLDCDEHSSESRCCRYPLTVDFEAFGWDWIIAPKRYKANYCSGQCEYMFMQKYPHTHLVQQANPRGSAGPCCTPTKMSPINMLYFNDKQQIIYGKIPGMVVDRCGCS
Assay: Biacore SPR, GDF-11 amine-coupled on CM5 chip

“ActRIIa-mFc (from UniProt P27037 21-135) (Fc fusion)” was tested, and the binding was “binds”.
